From patent publication US10646591B2, “Imaging agents for imaging protease activity and uses thereof” (The United States of America, as represented by the …, priority 2011, dated 2020)
Part of at least one peptide drawing is inferred or uncertain, most often the ends.

Tests used:
[1] = molecular target: MMP-13 (Homo sapiens, UniProt P45452); assay: In vitro enzyme test with activated MMPs (MMP-13 as model MMP); type: biochemical; details: 15 nM agent, 40 nM activated MMP-13
[2] = test system: MMP-positive SCC-7 tumor; assay: In vivo NIR fluorescence imaging of SCC-7 tumor-bearing mice; details: intravenous, imaging for 24 hours, compared to other MMP-Pns and MMPSense 680
Method: Squamous cell carcinoma SCC-7 were cultured in RPMI 1640 medium containing 10% (v/v) fetal bovine serum (Invitrogen, Carlsbad, Calif.) supplemented with penicillin (100 μg/ml) and streptomycin (100 μg/ml) at 37° C. with 5% CO2. The SCC-7 tumor model was developed by subcutaneous injection of 1×10^6 cells into the right front flank of female athymic nude mice (Harlan Laboratories, Indianapolis, Ind.). The mice were used for optical studies when the tumor volume reached about 300 mm^3. […]
Optical image acquisition and analysis were done using a Maestro 2 imaging system (Cambridge Research & Instrumentation, Inc. (CRI), Woburn, Mass.). […] Images were normalized and analyzed by using Maestro software. For quantitative comparison, the regions of interest (ROI) were drawn over tumor (T) and normal tissue (N, muscle), and the average signal (×10^6 photons×cm^−2×s^−1) for each area was measured. […]
The MMP-Pns imaging agents used in Example 2, were then used to create a video image of the activity of MMPs in vivo. […] The MMP-P12 generated strong NIR fluorescence signals as early as 20 to 30 minutes after the probe injection and enabled clear visualization of MMPs in the tumor region thereafter.

[3] = test system: MMP-2; assay: Imaging of MMP expression in bleomycin-induced pulmonary fibrosis mouse model (BLM); type: in vivo, mice; details: day 3, 7, 14 and 21, imaging 2 hours after injection
[4] = test system: MMP expression; assay: Ex vivo liver imaging in CCl4-induced liver fibrosis mouse model; design: species or system mice

Which results are given for `CCN(CC)c1ccc2nc3ccc(/N=N/c4ccc(N(C)CCCC(=O)NCCCC[C@H](NC(=O)CNC(=O)[C@H](CCCNC(=N)N)NC(=O)[C@@H](NC(=O)CNC(=O)[C@H](CC(C)C)NC(=O)[C@@H]5CCCN5C(=O)CNC(=O)CCCCCN5/C(=C/C=C/C=C/C6=[N+](CC)c7ccc8c(S(=O)(=O)O)cc(S(=O)(=O)[O-])cc8c7C6(C)C)C(C)(C)c6c5ccc5c(S(=O)(=O)O)cc(S(=O)(=O)[O-])cc65)C(C)C)C(=O)NCC(=O)NCC(=O)NCCOCCOCCOCCOCCOCCOCCOCCOCCOCCOCCOCCO)cc4)cc3[n+](-c3ccccc3)c2c1` [MMP-P12]?
rate of activation [1]: slightly enhanced; onset of activation in vivo, NIR fluorescence in tumor region [2]: early onset of activation in vivo; fluorescent signals in ROI of the lung after bleomycin treatment [3]: gradually increased up to 21 days; fluorescent signals in ROI of the liver, onset of increase ([4]; 0, 2, 4, and 8 weeks of CCl4, 4 hours after injection): started to increase compared to control group after 4 weeks; high fluorescent signals in the liver, duration ([4]; CCl4 treatment, 4 hours after injection): maintained up to 8 weeks
